For assay [1], the target named is T1, ANKZF1-GFP (Ankyrin repeat and Zinc Finger Peptidyl tRNA Hydrolase 1, C-terminally GFP tagged) (human) (UniProt Q9H8Y5).
T1 sequence: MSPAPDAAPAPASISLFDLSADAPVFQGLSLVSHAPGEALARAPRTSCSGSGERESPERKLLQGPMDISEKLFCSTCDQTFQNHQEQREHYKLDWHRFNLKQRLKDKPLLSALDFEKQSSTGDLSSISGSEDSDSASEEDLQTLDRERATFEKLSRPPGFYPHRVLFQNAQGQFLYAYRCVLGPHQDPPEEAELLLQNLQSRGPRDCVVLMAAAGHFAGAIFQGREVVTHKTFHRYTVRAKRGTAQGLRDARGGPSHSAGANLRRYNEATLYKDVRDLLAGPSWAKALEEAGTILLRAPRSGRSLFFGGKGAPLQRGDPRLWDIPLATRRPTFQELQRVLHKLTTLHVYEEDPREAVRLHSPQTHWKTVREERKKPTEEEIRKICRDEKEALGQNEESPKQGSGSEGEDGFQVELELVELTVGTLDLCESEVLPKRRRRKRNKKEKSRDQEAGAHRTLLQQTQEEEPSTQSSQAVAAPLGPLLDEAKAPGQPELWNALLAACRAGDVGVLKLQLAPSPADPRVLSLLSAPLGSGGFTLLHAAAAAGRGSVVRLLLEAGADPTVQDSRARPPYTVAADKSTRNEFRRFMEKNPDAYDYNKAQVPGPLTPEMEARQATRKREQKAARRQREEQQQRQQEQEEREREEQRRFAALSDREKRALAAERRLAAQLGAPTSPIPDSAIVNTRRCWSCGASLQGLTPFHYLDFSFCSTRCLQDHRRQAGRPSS
Nature of the assay: condition: only unstressed control cells (Mito-BFP expression, without PMD or CCCP); co-IP; as a1, but unstressed control cells expressing Mito-BFP (no PMD, no CCCP); IP with anti-GFP antibody on Protein A/G Sepharose beads.

Chains of the proteins cited; added tags and fusions are not shown.
UniProt O60260: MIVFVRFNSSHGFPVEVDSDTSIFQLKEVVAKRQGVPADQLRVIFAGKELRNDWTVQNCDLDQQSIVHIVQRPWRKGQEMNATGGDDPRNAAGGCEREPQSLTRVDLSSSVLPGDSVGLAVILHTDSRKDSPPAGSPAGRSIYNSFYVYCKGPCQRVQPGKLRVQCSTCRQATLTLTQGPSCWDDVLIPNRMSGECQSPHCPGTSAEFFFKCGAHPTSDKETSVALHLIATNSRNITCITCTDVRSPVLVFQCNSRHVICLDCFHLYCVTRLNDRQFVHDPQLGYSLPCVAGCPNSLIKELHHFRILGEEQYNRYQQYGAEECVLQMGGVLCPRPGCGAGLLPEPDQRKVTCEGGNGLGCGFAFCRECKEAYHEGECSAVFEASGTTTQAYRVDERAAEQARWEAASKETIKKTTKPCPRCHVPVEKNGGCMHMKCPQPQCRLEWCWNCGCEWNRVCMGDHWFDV

Assay [2] has as its target T1, ANKZF1-GFP (Ankyrin repeat and Zinc Finger Peptidyl tRNA Hydrolase 1, C-terminally GFP tagged) (human). Put plainly: co-IP; HEK293T cells transfected with ANKZF1-GFP and mCherry-Parkin, with mitochondrial stress by Mito-PMD expression or CCCP treatment; IP with anti-GFP antibody (pre-immune antisera as control) on Protein A/G Sepharose beads; blots probed with anti-GFP, anti-Parkin and anti-LC3.

These are yes or no findings as the source states them, for the method shown. In cells and extracts the contact can be indirect. Some entries that bind do so weakly or less than the wild type. Tags and fused reporters may be left off the sequences shown.

For “mCherry-Parkin (from UniProt O60260 1-465)”, the binding entry in assay [1] was “no binding”; in assay [2] it was “binds”.

The record behind these values is PMC12307761.
